This is one part of the list.

Chains of the proteins cited; added tags and fusions are not shown. Lines headed by an entry give the natural chain unless they say otherwise; changes in a name come on top.
UniProt Q9Y4B5: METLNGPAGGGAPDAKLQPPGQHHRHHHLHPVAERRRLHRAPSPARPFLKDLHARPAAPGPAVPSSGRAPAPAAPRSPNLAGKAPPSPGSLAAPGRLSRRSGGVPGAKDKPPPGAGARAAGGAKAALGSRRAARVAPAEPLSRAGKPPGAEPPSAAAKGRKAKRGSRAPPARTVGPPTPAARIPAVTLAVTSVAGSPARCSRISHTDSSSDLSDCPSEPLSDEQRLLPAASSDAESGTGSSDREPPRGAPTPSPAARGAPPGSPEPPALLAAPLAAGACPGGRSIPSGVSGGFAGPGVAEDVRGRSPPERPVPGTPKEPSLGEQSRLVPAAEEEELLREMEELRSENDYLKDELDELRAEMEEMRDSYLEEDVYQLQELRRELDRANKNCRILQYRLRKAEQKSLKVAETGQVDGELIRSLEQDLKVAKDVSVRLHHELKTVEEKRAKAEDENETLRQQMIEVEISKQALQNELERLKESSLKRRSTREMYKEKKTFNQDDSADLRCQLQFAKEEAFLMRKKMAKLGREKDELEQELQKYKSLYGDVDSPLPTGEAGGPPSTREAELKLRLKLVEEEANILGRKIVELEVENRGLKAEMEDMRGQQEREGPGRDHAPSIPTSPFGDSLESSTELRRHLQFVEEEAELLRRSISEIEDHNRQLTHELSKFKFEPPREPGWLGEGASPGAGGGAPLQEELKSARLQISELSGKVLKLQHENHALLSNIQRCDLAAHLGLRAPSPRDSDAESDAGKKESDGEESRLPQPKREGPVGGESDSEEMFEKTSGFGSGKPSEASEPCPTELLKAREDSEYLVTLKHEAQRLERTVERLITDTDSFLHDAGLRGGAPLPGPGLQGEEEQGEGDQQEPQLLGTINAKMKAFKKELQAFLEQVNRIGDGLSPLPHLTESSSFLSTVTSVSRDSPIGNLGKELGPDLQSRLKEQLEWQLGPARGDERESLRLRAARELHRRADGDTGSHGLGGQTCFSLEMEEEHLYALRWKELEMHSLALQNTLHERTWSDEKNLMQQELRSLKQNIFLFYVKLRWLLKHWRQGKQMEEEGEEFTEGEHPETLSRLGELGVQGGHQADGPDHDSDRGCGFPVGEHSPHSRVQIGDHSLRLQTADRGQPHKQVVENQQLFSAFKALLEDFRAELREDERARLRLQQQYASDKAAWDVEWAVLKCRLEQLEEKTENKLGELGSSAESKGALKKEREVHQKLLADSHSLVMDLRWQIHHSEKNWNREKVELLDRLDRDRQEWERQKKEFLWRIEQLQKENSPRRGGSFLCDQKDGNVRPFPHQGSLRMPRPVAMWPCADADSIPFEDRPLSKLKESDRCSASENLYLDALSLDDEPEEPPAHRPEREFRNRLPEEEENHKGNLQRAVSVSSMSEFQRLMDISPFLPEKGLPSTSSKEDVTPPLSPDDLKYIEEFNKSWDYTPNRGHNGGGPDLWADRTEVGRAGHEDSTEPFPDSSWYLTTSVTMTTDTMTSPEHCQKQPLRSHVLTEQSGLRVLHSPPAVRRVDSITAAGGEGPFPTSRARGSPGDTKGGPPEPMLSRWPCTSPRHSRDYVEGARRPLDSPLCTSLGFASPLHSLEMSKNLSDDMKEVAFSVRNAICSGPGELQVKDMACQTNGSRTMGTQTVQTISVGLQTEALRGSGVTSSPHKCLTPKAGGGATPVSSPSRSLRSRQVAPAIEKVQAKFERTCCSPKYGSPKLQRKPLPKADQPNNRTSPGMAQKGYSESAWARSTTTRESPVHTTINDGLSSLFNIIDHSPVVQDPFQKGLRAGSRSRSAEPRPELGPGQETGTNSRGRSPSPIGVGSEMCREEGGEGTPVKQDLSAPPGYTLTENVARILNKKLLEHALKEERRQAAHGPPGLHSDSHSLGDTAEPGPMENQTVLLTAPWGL
UniProt Q13330: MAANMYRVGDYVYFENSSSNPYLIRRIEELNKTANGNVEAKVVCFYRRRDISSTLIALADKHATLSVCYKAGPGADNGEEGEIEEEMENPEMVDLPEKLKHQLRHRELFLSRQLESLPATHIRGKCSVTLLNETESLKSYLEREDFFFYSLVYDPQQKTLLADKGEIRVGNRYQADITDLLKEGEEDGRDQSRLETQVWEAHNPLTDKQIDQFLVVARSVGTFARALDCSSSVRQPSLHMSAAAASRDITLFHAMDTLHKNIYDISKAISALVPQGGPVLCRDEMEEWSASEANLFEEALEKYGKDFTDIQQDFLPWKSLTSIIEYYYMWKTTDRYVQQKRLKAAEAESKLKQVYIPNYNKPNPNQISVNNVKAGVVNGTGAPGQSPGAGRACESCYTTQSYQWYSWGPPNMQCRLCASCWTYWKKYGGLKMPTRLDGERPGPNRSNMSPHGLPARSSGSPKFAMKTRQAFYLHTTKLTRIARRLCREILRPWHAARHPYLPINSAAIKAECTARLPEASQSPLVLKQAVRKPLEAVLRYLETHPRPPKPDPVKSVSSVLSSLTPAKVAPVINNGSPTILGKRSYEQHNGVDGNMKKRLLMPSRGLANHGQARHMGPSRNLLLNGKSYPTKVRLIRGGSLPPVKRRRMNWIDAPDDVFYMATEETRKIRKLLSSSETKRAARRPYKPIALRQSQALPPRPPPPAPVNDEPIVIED
UniProt P03905, whole entry, looked up: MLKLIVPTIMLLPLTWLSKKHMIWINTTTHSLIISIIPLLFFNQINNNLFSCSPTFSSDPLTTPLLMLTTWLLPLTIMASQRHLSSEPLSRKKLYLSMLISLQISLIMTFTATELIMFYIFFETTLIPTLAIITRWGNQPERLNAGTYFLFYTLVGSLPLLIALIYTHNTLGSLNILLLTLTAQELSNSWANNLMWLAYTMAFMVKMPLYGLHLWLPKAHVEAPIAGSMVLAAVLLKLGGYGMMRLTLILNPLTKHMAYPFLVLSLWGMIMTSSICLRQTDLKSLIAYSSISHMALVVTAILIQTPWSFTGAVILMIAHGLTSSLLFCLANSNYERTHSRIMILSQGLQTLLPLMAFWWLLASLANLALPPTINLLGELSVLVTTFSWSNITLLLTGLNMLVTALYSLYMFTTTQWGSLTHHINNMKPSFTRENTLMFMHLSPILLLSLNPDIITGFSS
UniProt Q9Y6C9: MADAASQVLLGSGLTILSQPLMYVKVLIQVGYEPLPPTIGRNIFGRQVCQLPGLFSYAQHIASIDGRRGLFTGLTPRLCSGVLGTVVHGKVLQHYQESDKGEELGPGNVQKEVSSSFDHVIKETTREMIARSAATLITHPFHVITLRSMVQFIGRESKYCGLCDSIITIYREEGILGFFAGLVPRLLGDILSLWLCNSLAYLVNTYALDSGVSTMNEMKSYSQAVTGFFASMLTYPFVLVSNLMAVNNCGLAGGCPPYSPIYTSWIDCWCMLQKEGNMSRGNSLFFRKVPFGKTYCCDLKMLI
UniProt Q13496: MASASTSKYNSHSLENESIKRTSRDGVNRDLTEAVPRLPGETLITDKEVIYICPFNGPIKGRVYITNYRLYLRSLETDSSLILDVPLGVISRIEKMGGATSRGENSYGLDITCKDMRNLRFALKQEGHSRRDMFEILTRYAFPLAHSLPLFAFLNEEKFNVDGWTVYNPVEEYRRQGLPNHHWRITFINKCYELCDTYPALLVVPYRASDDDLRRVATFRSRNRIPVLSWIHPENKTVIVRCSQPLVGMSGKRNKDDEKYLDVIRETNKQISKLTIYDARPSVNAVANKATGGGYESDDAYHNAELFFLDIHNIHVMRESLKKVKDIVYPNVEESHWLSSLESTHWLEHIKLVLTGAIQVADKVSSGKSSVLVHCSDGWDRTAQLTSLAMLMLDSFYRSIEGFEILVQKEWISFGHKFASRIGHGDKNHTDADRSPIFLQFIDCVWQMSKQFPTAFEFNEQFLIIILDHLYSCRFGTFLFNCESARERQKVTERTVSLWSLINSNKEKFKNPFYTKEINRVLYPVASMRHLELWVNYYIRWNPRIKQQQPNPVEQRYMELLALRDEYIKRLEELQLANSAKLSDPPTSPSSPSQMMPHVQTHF
UniProt Q2M296: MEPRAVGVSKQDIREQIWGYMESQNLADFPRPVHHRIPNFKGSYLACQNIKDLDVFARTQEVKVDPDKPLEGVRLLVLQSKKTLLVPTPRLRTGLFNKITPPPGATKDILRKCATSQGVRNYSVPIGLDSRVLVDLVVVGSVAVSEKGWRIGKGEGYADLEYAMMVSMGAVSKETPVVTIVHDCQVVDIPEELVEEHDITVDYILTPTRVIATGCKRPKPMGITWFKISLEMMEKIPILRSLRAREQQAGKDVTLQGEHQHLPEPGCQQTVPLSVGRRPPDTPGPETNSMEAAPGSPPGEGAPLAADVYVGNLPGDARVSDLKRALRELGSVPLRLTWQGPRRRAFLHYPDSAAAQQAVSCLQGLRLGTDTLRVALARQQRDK
UniProt Q9Y3D2: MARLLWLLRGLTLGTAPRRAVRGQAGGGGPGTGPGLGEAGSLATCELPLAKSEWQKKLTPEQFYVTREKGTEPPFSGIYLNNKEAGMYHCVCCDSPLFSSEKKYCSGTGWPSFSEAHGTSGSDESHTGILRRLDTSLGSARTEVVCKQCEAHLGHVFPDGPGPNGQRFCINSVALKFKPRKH
UniProt O94776: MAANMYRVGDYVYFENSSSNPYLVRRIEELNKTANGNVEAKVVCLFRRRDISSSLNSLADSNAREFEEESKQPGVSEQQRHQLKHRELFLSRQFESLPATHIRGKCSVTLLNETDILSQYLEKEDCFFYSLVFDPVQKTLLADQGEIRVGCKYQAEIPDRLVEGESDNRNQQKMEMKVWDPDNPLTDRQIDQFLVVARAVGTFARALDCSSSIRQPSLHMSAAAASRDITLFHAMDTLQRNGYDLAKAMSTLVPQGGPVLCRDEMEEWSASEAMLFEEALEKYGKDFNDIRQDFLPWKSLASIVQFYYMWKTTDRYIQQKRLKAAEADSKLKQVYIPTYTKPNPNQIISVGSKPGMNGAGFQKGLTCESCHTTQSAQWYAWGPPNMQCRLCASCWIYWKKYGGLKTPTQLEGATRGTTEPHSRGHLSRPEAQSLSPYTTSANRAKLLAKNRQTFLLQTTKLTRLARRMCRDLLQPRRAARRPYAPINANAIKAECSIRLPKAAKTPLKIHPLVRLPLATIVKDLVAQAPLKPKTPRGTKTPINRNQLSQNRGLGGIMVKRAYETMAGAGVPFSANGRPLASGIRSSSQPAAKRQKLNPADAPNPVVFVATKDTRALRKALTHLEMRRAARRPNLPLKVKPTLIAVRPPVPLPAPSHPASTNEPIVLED
UniProt P52701: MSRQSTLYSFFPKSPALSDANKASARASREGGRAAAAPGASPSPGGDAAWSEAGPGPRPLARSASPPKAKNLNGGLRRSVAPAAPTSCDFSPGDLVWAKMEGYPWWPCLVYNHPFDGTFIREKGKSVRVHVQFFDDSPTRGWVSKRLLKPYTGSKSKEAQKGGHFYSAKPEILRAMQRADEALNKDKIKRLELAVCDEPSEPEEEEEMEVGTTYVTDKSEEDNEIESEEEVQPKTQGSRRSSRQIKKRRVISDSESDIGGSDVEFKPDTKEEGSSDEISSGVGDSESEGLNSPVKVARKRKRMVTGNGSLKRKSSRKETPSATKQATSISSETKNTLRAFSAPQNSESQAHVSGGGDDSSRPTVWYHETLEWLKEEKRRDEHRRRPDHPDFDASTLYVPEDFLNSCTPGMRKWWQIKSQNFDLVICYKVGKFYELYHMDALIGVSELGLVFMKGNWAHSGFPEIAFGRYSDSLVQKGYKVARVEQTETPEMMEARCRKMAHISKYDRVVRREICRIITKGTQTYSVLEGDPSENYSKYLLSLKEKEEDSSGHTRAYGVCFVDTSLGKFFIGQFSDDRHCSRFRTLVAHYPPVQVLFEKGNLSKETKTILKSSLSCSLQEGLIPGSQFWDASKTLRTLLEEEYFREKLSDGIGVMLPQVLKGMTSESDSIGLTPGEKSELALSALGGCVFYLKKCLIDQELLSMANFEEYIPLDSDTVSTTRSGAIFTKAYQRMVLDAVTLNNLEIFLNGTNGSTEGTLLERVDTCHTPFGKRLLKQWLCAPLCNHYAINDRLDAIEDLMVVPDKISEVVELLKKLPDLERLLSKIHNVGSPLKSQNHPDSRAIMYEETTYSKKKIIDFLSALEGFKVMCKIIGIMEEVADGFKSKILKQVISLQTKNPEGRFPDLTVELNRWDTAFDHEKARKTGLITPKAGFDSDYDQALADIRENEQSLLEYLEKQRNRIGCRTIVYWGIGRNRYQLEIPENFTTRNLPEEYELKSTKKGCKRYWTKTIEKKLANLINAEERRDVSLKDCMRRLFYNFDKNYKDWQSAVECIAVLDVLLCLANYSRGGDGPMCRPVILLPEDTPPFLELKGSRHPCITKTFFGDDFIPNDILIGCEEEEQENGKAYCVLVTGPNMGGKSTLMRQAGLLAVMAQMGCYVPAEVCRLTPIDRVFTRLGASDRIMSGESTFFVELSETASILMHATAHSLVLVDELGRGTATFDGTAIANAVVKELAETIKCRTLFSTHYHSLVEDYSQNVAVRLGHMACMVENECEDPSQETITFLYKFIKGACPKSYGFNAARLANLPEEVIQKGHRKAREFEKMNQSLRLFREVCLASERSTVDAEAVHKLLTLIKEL

Compound in the test: CCCS(=O)(=O)Nc1ccc(F)c(C(=O)c2c[nH]c3ncc(-c4ccc(Cl)cc4)cc23)c1F [vemurafenib]
Briefly: log2 fold change, soluble protein after heating vs DMSO (PISA); higher = thermal stabilisation; K562 lysate, 10 uM; active = over 0.2 and 3.5 SD of the protein, either way, in both replicates (recomputed). In a few lines:
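To prepare the extract, K562 pellets were dounce-homogenised in PBS pH 7.4 with 1 mM MgCl2, giving crude material at 1 mg/mL protein. This was treated with 10 μM compound for 30 min, then heated in aliquots for 3 min over 48°C-58°C before pooling and addition of NP-40 to 0.5% at 4°C. Centrifugation at 21,000xg for 90 min left soluble protein in the supernatant, which TMTpro 16plex LC-MS/MS quantified with equalised channel sums. Results are log-two fold changes in thermal stability compared with solvent controls, from duplicates.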
As for MTCL1 (UniProt Q9Y4B5), the log2 fold change is inactive: 0.11.
Consider MRPS23 (UniProt Q9Y3D9), for which the log2 fold change is inactive: -0.006.
With MTMR1 (UniProt Q13613), the log2 fold change was inactive: 0.064.
The value for MSMO1 (UniProt Q15800) was inactive: 0.031; that for MSI2 (UniProt Q96DH6) was inactive: 0.039; that for MRPS11 (UniProt P82912) was inactive: -0.062.
MTOR (UniProt P42345): the log2 fold change was inactive: 0.026.
The value for MRPL37 (UniProt Q9BZE1) was inactive: 0.034; that for MRPL38 (UniProt Q96DV4) was inactive: 0.024.
The value for MRPS27 isoform 2 (UniProt Q92552) was inactive: 0.053; that for MRRF (UniProt Q96E11) was inactive: 0.025.
As for MRPS6 (UniProt P82932), the log2 fold change is inactive: 0.002.
For the target MRPL43 isoform 4 (UniProt Q8N983), the log2 fold change is inactive: -0.006.
Regarding MTA1 (UniProt Q13330), the log2 fold change is inactive: -0.022.
With MTFR1 (UniProt Q15390), the log2 fold change was inactive: -0.032.
With MRPS16 (UniProt Q9Y3D3), the log2 fold change was inactive: 0.038.
For the target MTRR isoform 1 (UniProt Q9UBK8), the log2 fold change was inactive: 0.077.
As to MTRES1 (UniProt Q9P0P8), the log2 fold change was inactive: -0.055.
As to MTHFD1, A0A384N5Y3, the log2 fold change is inactive: 0.058.
Take MT-ND4 (UniProt P03905): the log2 fold change is inactive: 0.
On to MTCH2 (UniProt Q9Y6C9), for which the log2 fold change is inactive: 0.013.
As for MRPS7 (UniProt Q9Y2R9), the log2 fold change was inactive: -0.016.
For MTM1 (UniProt Q13496), the log2 fold change was inactive: -0.012.
In the case of MT-ATP8 (UniProt P03928), the log2 fold change is inactive: 0.033.
With MRPL55 isoform 2 (UniProt Q7Z7F7), the log2 fold change was inactive: -0.069.
The value for MT-CO1 (UniProt P00395) was inactive: -0.117; that for MRPS21 (UniProt P82921) was inactive: -0.103.
The value for MRPL50 (UniProt Q8N5N7) was inactive: 0.017.
In the case of MTHFSD isoform 3 (UniProt Q2M296), the log2 fold change was inactive: 0.01.
MTRF1L (UniProt Q9UGC7): the log2 fold change was inactive: 0.038.
Turning to MSRB2 (UniProt Q9Y3D2), the log2 fold change is inactive: 0.063.
Regarding MRPS14 (UniProt O60783), the log2 fold change was inactive: 0.395.
Turning to MRPL9 (UniProt Q9BYD2), the log2 fold change is inactive: 0.02.
As to MRPL35 (UniProt Q9NZE8), the log2 fold change was inactive: 0.091.
The value for MRPS26 (UniProt Q9BYN8) was inactive: 0.027.
Turning to MRPS9 (UniProt P82933), the log2 fold change is inactive: 0.014.
Take MTA2 (UniProt O94776): the log2 fold change is inactive: 0.007.
The value for MT1G (UniProt P13640) was inactive: -0.089; that for MSH6 (UniProt P52701) was inactive: 0.024.

Source of the values: the supplement of paper PMC10849652.
